Results reported in PubChem BioAssay AID504648 (National Center for Advancing Translational Sciences (NCATS), 2011).
Hit rate of the full screen: of about 390,000 compounds, about 610 (0.16%) were called active. The shares of active, inactive and inconclusive entries below differ from those in the screen. The call rests on the fitted dose curve; in most records, active means well fitted inhibition curve with a large enough effect; inconclusive means small, poorly fitted or top-dose-only effect, or effect the other way, or another doubt; inactive means no such curve, though single readings can be large or run the other way. Potencies beside an inconclusive call are fits to weak or partial responses and may not hold up.

Assay: Nrf2 qHTS screen for inhibitors: counterscreen for cytotoxicity
Settings: A549 ARE-Fluc cells, CellTiter-Fluor viability, 18-24 h; activity change, negative = cytotoxicity: at 46 µM (top of the series)
Method in brief: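 Cytotoxicity counterscreen: CellTiter-Fluor fluorescence was measured in A549 ARE_Fluc cells after 18-24 h of compound exposure in a concentration series. The subsequent BugLite luminescent read reports ARE-luciferase activity.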
On the % scale 0 is the no-effect control and ±100 the full control effect; potency means the concentration at half of the fitted maximal effect.

| SMILES | activity change, negative = cytotoxicity | Potency |
| --- | --- | --- |
| CCC(=O)N1CCc2cc(S(=O)(=O)NC(Cc3ccccc3)C(=O)Nc3ccccc3C)ccc21 (stereo not drawn) | inactive: 10.9% |  |
| O=C(Nc1ccc(F)cc1)c1cc(S(=O)(=O)Nc2ccc(F)cc2)cs1 |  | inconclusive: 23.1 µM [falling, partial curve, poor fit] |
| Cn1c(SCc2ccccc2)nnc1-c1c[nH]c2ccccc12 | inactive: -1.1% |  |
| C/C(CC(C)(C)C1CCCCC1)=N\NC(N)=S | inactive: -4.18% |  |
| CCN(CC)c1ccc(-c2c(C#N)c(N)nc(OC)c2C#N)cc1 | inactive: 11.1% [at 1.84 µM] |  |
| CCn1cc(C(=O)NCc2cccc(F)c2)c(=O)c2cc(F)c(N3CCN(C(=O)c4ccco4)CC3)cc21 |  | inconclusive: 20.6 µM [falling, single point] |
| C=C1C(=O)C=C2CN(C(=O)c3ccccc3)[C@@](Cc3ccc(F)cc3)(C(=O)OC)[C@@H]12 |  | active: 10.3 µM |
| COc1cc(OC)c(NC2=C(c3ccc(C(F)(F)F)cc3)C(=O)c3ccccc32)cc1Cl | inactive: -1.62% |  |
| Cc1ccc(-n2cc(CNCCc3ncc(C)[nH]3)c(-c3ccc(F)cc3)n2)cc1 |  | inconclusive: 9.2 µM [falling, partial curve] |
| CC(C)c1ccc(C(=O)NC(=S)NCc2cccnc2)cc1 | inactive: 7.2% |  |
| NS(=O)(=O)c1ccc(CCNC(=O)COC(=O)CC(c2ccccc2)c2ccccc2)cc1 |  | inconclusive: 0.0065 µM [falling, full curve, poor fit] |
| CCOC(=O)[C@@H]1[C@H]2COc3cc(OC)ccc3[C@@H]2N2C(=O)N(c3ccc(C(F)(F)F)cc3)C(=O)[C@]12C | inactive: -0.472% |  |
| C=CCn1cccc(C(=O)Nc2ccc(Cl)cc2)c1=O | inactive: -1.44% |  |
| CCOc1ccc(/C=C/c2nc(C#N)c(NC(C)c3ccccc3)o2)cc1 (stereo not drawn) | inactive: 1.53% |  |
| O=C(COC(=O)c1c2c(nc3ccccc13)/C(=C\c1ccco1)CC2)NC1CCCC1 |  | inconclusive: 16.4 µM [activator, partial curve] |
| CCc1cccc(C)c1NC(=O)CN1C(=O)C2(SCC(=O)N2c2cccc(F)c2)c2ccccc21 (stereo not drawn) | inactive: -3.08% |  |
| Cc1cc(C)nc(N2CCCC(C(=O)NCCC3=CCCCC3)C2)n1 (stereo not drawn) |  | inconclusive: 2.91 µM [activator, partial curve, poor fit] |
| CCOc1ccc(Nc2cc(C)nc(N3CCOCC3)n2)cc1 |  | inconclusive: 16.4 µM [activator, partial curve, poor fit] |
| COCCNc1c(-c2cc3ccc(C)c(C)c3[nH]c2=O)nc2ccccn12 |  | inconclusive: 6.51 µM [falling, single point] |
| CCCC1=NN2C(=N)/C(=C\c3cc(C)n(-c4cccc(C)c4)c3C)C(=O)N=C2S1 | inactive: 0.0798% |  |
| CN(C)c1ccc(Nc2nc(N)c3ccccc3n2)cc1 | inactive: 7.3% |  |
| O=C(NCCCN1CCCC1=O)C1CCN(S(=O)(=O)c2ccccc2)CC1 | inactive: -0.804% |  |
| COc1cccc(Cl)c1NC(=O)N1CCN(c2cc(C)nc3ccccc23)CC1 |  | inconclusive: 20.6 µM [falling, partial curve, poor fit] |

Sorted by length of the SMILES (rising): 3 of the compounds above.

| SMILES | activity change, negative = cytotoxicity | Potency |
| --- | --- | --- |
| C/C(CC(C)(C)C1CCCCC1)=N\NC(N)=S | inactive: -4.18% |  |
| CCOc1ccc(/C=C/c2nc(C#N)c(NC(C)c3ccccc3)o2)cc1 (stereo not drawn) | inactive: 1.53% |  |
| CCn1cc(C(=O)NCc2cccc(F)c2)c(=O)c2cc(F)c(N3CCN(C(=O)c4ccco4)CC3)cc21 |  | inconclusive: 20.6 µM [falling, single point] |

More results follow:

| SMILES | activity change, negative = cytotoxicity | Potency |
| --- | --- | --- |
| Cc1ccc(C(OCC(O)CNCc2ccc(F)cc2)c2ccccc2)cc1 (stereo not drawn) |  | inconclusive: 29.1 µM [falling, single point] |
| O=C(CSc1n[nH]c(-c2ccc(F)cc2)n1)NCc1ccccc1Cl | inactive: 8.48% |  |
| COc1ccc(-c2nc3cc(C)ccn3c2NC2CCCCC2)cc1SC1CCCCC1 |  | inconclusive: 29.1 µM [falling, single point] |
| Cc1cc(Br)ccc1NC(=O)C(C)c1ccc([N+](=O)[O-])cc1 (stereo not drawn) |  | inconclusive: 29.1 µM [activator, single point] |
| CCn1c(C(O)c2ccccc2)nc2ccccc21 (stereo not drawn) | inactive: -0.513% [at 1.84 µM] |  |
| CCC(C)C(=O)Nc1nc(C)c(-c2csc(Nc3ccc(Cl)cc3)n2)s1 (stereo not drawn) |  | inconclusive: 16.4 µM [falling, partial curve, poor fit] |
| O=C(NCC(c1cccnc1)N1CCN(c2ccccc2)CC1)C1CCCCC1 (stereo not drawn) |  | inconclusive: 23.1 µM [activator, partial curve, poor fit] |
| O=C(O)C1CCN(C(=O)CSc2nc3cc(Cl)ccc3c(=O)n2Cc2ccccc2)CC1 | inactive: -3.63% |  |
| CCn1c(C)nc2cc(C(=O)N/N=C/c3ccc(O)c(O)c3O)ccc21 |  | inconclusive: 20.6 µM [falling, partial curve, poor fit] |
| CCN(CC)CCn1c(=N)n(CC(=O)c2ccc(Br)s2)c2ccccc21 |  | inconclusive: 29.1 µM [falling, single point] |
| N#Cc1c(N2CCN(C(=O)c3ccco3)CC2)nc(-c2ccccc2)c2c1CCCC2 |  | inconclusive: 32.6 µM [falling, single point] |
| COC(=O)CSc1nnc(CNC(=O)c2cc(OC)cc(OC)c2)n1-c1ccc(F)cc1 |  | inconclusive: 29.1 µM [falling, single point] |
| Cc1cc(NC(=O)c2cccc(S(=O)(=O)N3CCCCCC3)c2)n(-c2ccccn2)n1 |  | inconclusive: 18.4 µM [activator, partial curve, poor fit] |
| CCCC(NC(=S)NCC1CCCO1)C12CC3CC(CC(C3)C1)C2 (stereo not drawn) | inactive: 7.27% |  |
| Cc1ccc(-c2c(NC(=O)c3ccco3)oc3ccccc3c2=O)cc1 |  | inconclusive: 23.1 µM [falling, single point] |
| Cn1c(-c2ccc3ccccc3n2)nc2cnccc21 | inactive: 12.1% |  |
| C=CCN(c1ccccc1)S(=O)(=O)c1cccc2cccnc12 |  | inconclusive: 23.1 µM [activator, partial curve, poor fit] |
| O=[N+]([O-])c1cc(C(F)(F)F)ccc1NCCCCNS(=O)(=O)c1ccc(Cl)cc1 |  | inconclusive: 18.4 µM [falling, single point] |
| CS(=O)(=O)N1CCC(C(=O)N2CCN(C(c3ccccc3)c3ccccc3)CC2)CC1 | inactive: 0.744% |  |
| COc1ccc(/C=N/Nc2ccc([N+](=O)[O-])cc2)cc1Cn1cc([N+](=O)[O-])cn1 |  | inconclusive: 16.4 µM [falling, single point] |
| COc1cc(C2(c3ccc(O)c(OC)c3)C(=O)Nc3c(C)cc(Br)cc32)ccc1O | inactive: 10.9% |  |
| O=C(OCc1ccccc1)/C(=C/c1cccc(Br)c1)NC(=O)c1ccco1 |  | inconclusive: 23.1 µM [falling, single point] |
| Cc1sc2ncn(CC(=O)N(C)c3ccc(C(C)C)cc3)c(=O)c2c1S(=O)(=O)N1CCC(C)CC1 |  | inconclusive: 23.1 µM [falling, partial curve, poor fit] |

| SMILES | activity change, negative = cytotoxicity | Potency |
| --- | --- | --- |
| COC(=O)c1ccc(NC(=O)c2ccc(NC(=O)C3CCCO3)cc2)cc1 (stereo not drawn) |  | inconclusive: 29.1 µM [activator, single point] |
| COc1ccc(C(=O)Nc2ccc(Cc3ccncc3)cc2)cc1Br |  | inconclusive: 18.4 µM [falling, partial curve, poor fit] |
| CCc1cc2c(cc3c(=O)n(CC(=O)N4CCN(c5cccc(C)c5C)CC4)nc(CC)n32)s1 | inactive: 1.66% |  |
| COc1ccc(NC(=O)CC2C(=O)N(c3cccc(OC)c3)C(=O)N2CCC2=CCCCC2)cc1 (stereo not drawn) |  | inconclusive: 23.1 µM [falling, partial curve] |
| CCN(CC)CCNc1ncnc2c1sc1nc(N3CCCC3)c3c(c12)CC(C)(C)OC3 |  | inconclusive: 29.1 µM [falling, single point] |
| Cc1ccc(-c2cc3ncc4c(n3n2)-c2cc(Cl)ccc2OC4)cc1 | inactive: 0.662% |  |
| COc1ccc(C2C(C(C)=O)=C(O)C(=O)N2Cc2cccnc2)cc1 (stereo not drawn) |  | inconclusive: 16.4 µM [activator, partial curve, poor fit] |
| CCN(CC)C(=O)CN(c1cc2c(cc1OC)oc1ccccc12)S(=O)(=O)c1ccccc1 |  | inconclusive: 25.9 µM [falling, partial curve, poor fit] |
| NC(=O)CC(NC(=O)c1ccc(Br)cc1)c1ccc(N2CCCCCCC2)c([N+](=O)[O-])c1 (stereo not drawn) |  | inconclusive: 23.1 µM [falling, partial curve, poor fit] |
| COc1ccccc1NC(=S)NCc1ccccc1Cl | inactive: 0.376% |  |
| O=C(CN1C(=O)c2cccc3cccc1c23)Nc1ccccc1Br | inactive: -0.597% |  |
| CCN(CC)CCCNc1oc(-c2cccc(Cl)c2)nc1C#N |  | inconclusive: 2.31 µM [activator, full curve, poor fit] |
| O=C(OCCN1C(=O)c2cccc3c(N4CCOCC4)ccc(c23)C1=O)c1cccc(Cl)c1 |  | inconclusive: 18.4 µM [activator, partial curve, poor fit] |
| Cc1cc(Cl)ccc1NC(=O)CCCn1nc(C)c2c(C)n(-c3ccccc3)nc2c1=O | inactive: -6.47% |  |
| CC(C)C(=O)OCc1cc(=O)n2nc(C3CC3)sc2n1 | inactive: 8.94% |  |
| O=S(=O)(c1ccccc1)c1nnn2c1nc(NC1CCN(Cc3ccccc3)CC1)c1cc(Cl)ccc12 |  | inconclusive: 18.4 µM [falling, single point] |
| CCOC(=O)C1=C(CN2CCc3ccccc32)NC(=O)NC1c1ccc(Cl)cc1 (stereo not drawn) |  | inconclusive: 25.9 µM [falling, single point] |
| O=c1c2c(nc3cc(-c4ccccc4)[nH]n13)CCC2 | inactive: -3.8% |  |
| c1ccc(C[C@H]2CN=C(Nc3ccccc3)N2CCCC2CCCCC2)cc1 |  | inconclusive: 32.6 µM [falling, partial curve, poor fit] |
| Cc1ccc(/C=C2/Sc3ccccc3N(CC(=O)NCC3CCCO3)C2=O)cc1 (stereo not drawn) | inactive: -6.93% |  |
| Cc1cccc(-n2nc(C)c(C(=O)N3CCN(c4ccccc4)CC3)c2-n2cccc2)c1 | inactive: -9.68% |  |
| Cc1cccc(OCCCn2c(CCNC(=O)C3CCCCC3)nc3ccccc32)c1 |  | inconclusive: 29.1 µM [falling, single point] |
